# Some of the results follow.
# Biological target: T1, OsSMF1 (Oryza sativa, UniProt Q6ZLB0 1-436)
# T1 sequence: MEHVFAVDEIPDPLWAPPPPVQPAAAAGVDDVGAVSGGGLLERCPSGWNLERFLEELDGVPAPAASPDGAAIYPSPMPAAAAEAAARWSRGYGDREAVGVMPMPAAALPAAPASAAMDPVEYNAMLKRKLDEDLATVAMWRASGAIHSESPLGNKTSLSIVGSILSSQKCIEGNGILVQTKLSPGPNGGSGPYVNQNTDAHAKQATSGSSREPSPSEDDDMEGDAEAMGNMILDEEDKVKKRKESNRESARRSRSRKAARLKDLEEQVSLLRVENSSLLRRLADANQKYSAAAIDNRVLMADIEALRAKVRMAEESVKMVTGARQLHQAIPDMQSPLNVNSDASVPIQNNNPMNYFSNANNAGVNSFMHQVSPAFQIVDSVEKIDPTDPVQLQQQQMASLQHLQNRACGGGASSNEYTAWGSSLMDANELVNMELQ
# Experiment: protein-binding microarray (RPBM); PBS, 2% BSA, 51.3 ng/ul salmon testes DNA, 50 uM zinc acetate, 200 nM TF, 25 C, 1 h; high values mean tight binding
# Details: protein: recombinant; tags: N-terminal polyhistidine and DsRed monomer fusion (pET32a); chain copies: 2; label: CyDye5-dUTP incorporated in the synthesized complementary strand; 3' TTTTT single-stranded linker to array surface; dsDNA, one strand shown
# How it was run: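 Transcription factors were made in E. coli BL21-CodonPlus as N-terminal fusions to a polyhistidine tag and DsRed, then purified on Ni–NTA. After primer extension with Cy5-dUTP and blocking with 2% BSA, a custom Agilent array was exposed for 1 h at 25 °C to 200 nM protein in PBS, 2% BSA, salmon testes DNA and 50 µM zinc acetate. Washed arrays were scanned on an Axon 4000B, and the binding signal is per-feature fluorescence intensity in arbitrary units.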
row,Sequence,binding signal
1,AAATAATTTATGAATAAAACTTTTATCTACGTGTTCTTAACGGAGTCACCTAGTGCAG,4110 fluorescence intensity (a.u.)
2,TTGTCCTGCGTTAACCAAAGAGCAAGATATCTGACGGAGGCGGAGTCACCTAGTGCAG,3820 fluorescence intensity (a.u.)
3,TCCTCCTAACCTCCAGCTATAAAACCAGCTCGCCCCAGATCGGAGTCACCTAGTGCAG,3360 fluorescence intensity (a.u.)
4,CGATTATTCCTGATGTTGCAATTGCCATCCTCCGTCACCCCGGAGTCACCTAGTGCAG,3380 fluorescence intensity (a.u.)
5,TATACTGCCTTGTTCTATAAATCACCGCAGAACACGTGTTCGGAGTCACCTAGTGCAG,4250 fluorescence intensity (a.u.)
6,GTTGGAGACCCTCTATGCTATTTGCTTCTTCCTCAGTTTGCGGAGTCACCTAGTGCAG,3840 fluorescence intensity (a.u.)
7,CGGCGGCTTCTTGTTGGTGACGCCGCACGGCATGGTTGATCGGAGTCACCTAGTGCAG,5370 fluorescence intensity (a.u.)
8,ATTCAAGATTGGATGAAGGATGACACCTCGACGTAGATATCGGAGTCACCTAGTGCAG,4000 fluorescence intensity (a.u.)
9,GTTACAGCATCATCATTTACGTTGTGACTCGTGTAGTGGGCGGAGTCACCTAGTGCAG,4670 fluorescence intensity (a.u.)
10,TAGTTAATAAAAGTCAAAATGAAGTCACAATTTGCCACGTCGGAGTCACCTAGTGCAG,8180 fluorescence intensity (a.u.)
11,AATATTGGTAGTGCCAAAACCTAGGCAAGTTTTGGTACTACGGAGTCACCTAGTGCAG,3230 fluorescence intensity (a.u.)
12,AGATTAAGGAGTCCTCCATCTATATAATCCAATCTATCTCCGGAGTCACCTAGTGCAG,21400 fluorescence intensity (a.u.)
13,CGCAGTTTACGCAAGGGCACGCTGCTGCTGACACAGTAGGCGGAGTCACCTAGTGCAG,5050 fluorescence intensity (a.u.)
14,AAGAGGAGGATTACTCGCCACGCGAAGCGGAGCTCGCCGCCGGAGTCACCTAGTGCAG,4090 fluorescence intensity (a.u.)
15,CCTCTCTGTGACTGCCGAGGCTTGGACTGTGTTCTCGCATCGGAGTCACCTAGTGCAG,24000 fluorescence intensity (a.u.)
16,TCTTTCGTCGCAATGCCACGCCATCATCGATCCCTTTCCTCGGAGTCACCTAGTGCAG,14800 fluorescence intensity (a.u.)
17,GAGTTCTTTTCTCATGCATCAGCAGAGAAAGCACTCCAGACGGAGTCACCTAGTGCAG,3380 fluorescence intensity (a.u.)
18,AAGAGACCTGTTTATTAGCGTCACTGACAGTCGTTGTCACCGGAGTCACCTAGTGCAG,3660 fluorescence intensity (a.u.)
19,TATAGAAATTGCTGATTGGTTACGTCGCAACTACTCTGACCGGAGTCACCTAGTGCAG,3520 fluorescence intensity (a.u.)
20,ACTTTGTACTAGTTTTCATATTATGTCATTCTTTAACCATCGGAGTCACCTAGTGCAG,3650 fluorescence intensity (a.u.)
21,CCTTTGTCAATCTCCACCACATCATCTCCTACCTCGTCCTCGGAGTCACCTAGTGCAG,7400 fluorescence intensity (a.u.)

row,Sequence,binding signal
1,CGAGATGTAAAAGTTGAATATGAAATTGCATATTTGTGGACGGAGTCACCTAGTGCAG,3820 fluorescence intensity (a.u.)
2,TGACAAAGCAAAGTCTTCTACAAAAGTATTAAACTGACCTCGGAGTCACCTAGTGCAG,15800 fluorescence intensity (a.u.)
3,CATGCTATGTGCTCAAAGGGCAACGGTCGACGTGTGCCTTCGGAGTCACCTAGTGCAG,4110 fluorescence intensity (a.u.)
4,TCCCCTTCCCCTTGCGTAAGGAAAACGAAAATCTTAAAATCGGAGTCACCTAGTGCAG,6370 fluorescence intensity (a.u.)
5,CCGTCTCCACGCATCATCGTCTCCCGCTCCTTTTAAACCCCGGAGTCACCTAGTGCAG,3380 fluorescence intensity (a.u.)
6,TTGATTCTGTTAGAGTCACGCACATGACCTCGCTGGTTTTCGGAGTCACCTAGTGCAG,3180 fluorescence intensity (a.u.)
7,GTTAGTTGGCTGACTCCACACGCCTCGCCGTCTCAGTGTCCGGAGTCACCTAGTGCAG,4940 fluorescence intensity (a.u.)
8,TATACTATACCTCTACATATAACGCCACCCGTCGCCTCGCCGGAGTCACCTAGTGCAG,3220 fluorescence intensity (a.u.)
9,CGAGCACGCGGCGACGCCCACGCCCACGCACACAGCTCGGCGGAGTCACCTAGTGCAG,4270 fluorescence intensity (a.u.)
10,TAAACCGCACCCGCGGACGTGACACAGCCACGCTGACTATCGGAGTCACCTAGTGCAG,4620 fluorescence intensity (a.u.)
11,TTTCTTTTACTAATTGTTTGCTAATTAATGAATGTATGGCCGGAGTCACCTAGTGCAG,31900 fluorescence intensity (a.u.)
12,AATCCCACGCGGTGCACAGTGAGTGCCACAGCACAGAGTGCGGAGTCACCTAGTGCAG,3340 fluorescence intensity (a.u.)
13,CCGCCTCCGCCGACGTGCGCTGCGGCCCACCTTTGCTTCTCGGAGTCACCTAGTGCAG,3740 fluorescence intensity (a.u.)
14,TGGAAAATTTGCATTTAGGTCCCAAAGGGCGGCAGGCGATCGGAGTCACCTAGTGCAG,12500 fluorescence intensity (a.u.)
15,CAGAGTGTGGTCCTTGTGGAACAAGCTTACAAGGGTGACACGGAGTCACCTAGTGCAG,3510 fluorescence intensity (a.u.)
16,TTATGGACTGATATGGGCCGTTGGATTGGTTTCGGTTTTGCGGAGTCACCTAGTGCAG,5480 fluorescence intensity (a.u.)
17,AGATTTTGGGTGTGTTTGGTTGCTTGCATTGTTTTAGTCTCGGAGTCACCTAGTGCAG,3300 fluorescence intensity (a.u.)
18,GAGTTGAAGCCAACAATTCTGACAAACCTAACAAAGATCACGGAGTCACCTAGTGCAG,30400 fluorescence intensity (a.u.)
19,CCGCCGCCCGCGCCACCCACGTCGCCGTCCCGCACGACGCCGGAGTCACCTAGTGCAG,5010 fluorescence intensity (a.u.)
20,CCGATCGCGCTCGCCTCGCCTACGTGGCCACTCGCCCCGCCGGAGTCACCTAGTGCAG,14400 fluorescence intensity (a.u.)
21,CGCGTACCGACAGGTCACATCGGGGCCATCCTGACCGTCCCGGAGTCACCTAGTGCAG,4580 fluorescence intensity (a.u.)

# No new results follow: an excerpt of the list.
row,Sequence,binding signal
20,CCGATCGCGCTCGCCTCGCCTACGTGGCCACTCGCCCCGCCGGAGTCACCTAGTGCAG,14400 fluorescence intensity (a.u.)
21,CGCGTACCGACAGGTCACATCGGGGCCATCCTGACCGTCCCGGAGTCACCTAGTGCAG,4580 fluorescence intensity (a.u.)

# From publication PMC7819943, “Rice protein-binding microarrays: a tool to detect cis-acting elements near promoter regions in rice”
